Data published in US20030162221A1.
These are yes or no findings as the source states them, for the method shown. In cells and extracts the contact can be indirect. Some results given as binding are weak or reduced against the parent protein; the word gives no strength. For part of these data: Where a sequence is shown, tags or fusion partners need not be part of it.

Amino acid sequences for entries named in this document (tags omitted). Residues count along the entry.
UniProt P32598: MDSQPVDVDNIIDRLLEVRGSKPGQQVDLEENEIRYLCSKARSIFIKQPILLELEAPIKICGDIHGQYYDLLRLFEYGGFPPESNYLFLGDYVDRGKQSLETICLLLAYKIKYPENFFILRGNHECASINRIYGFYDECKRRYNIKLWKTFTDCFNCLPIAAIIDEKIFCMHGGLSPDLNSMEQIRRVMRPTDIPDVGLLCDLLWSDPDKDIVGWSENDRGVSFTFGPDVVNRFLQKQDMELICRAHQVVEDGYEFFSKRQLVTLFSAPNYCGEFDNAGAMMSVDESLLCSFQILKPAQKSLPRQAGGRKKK
UniProt P00546, residues 2-298: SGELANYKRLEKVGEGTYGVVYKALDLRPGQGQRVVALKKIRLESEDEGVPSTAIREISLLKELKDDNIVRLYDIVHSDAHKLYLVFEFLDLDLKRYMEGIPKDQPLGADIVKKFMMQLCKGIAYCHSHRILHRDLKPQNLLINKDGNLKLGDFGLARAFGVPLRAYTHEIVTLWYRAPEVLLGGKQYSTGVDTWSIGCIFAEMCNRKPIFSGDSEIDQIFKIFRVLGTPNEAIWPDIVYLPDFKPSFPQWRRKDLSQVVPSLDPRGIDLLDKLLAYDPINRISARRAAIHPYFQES

T1: Bcy1 (Saccharomyces cerevisiae) (UniProt P07278)
T1 sequence (looked up): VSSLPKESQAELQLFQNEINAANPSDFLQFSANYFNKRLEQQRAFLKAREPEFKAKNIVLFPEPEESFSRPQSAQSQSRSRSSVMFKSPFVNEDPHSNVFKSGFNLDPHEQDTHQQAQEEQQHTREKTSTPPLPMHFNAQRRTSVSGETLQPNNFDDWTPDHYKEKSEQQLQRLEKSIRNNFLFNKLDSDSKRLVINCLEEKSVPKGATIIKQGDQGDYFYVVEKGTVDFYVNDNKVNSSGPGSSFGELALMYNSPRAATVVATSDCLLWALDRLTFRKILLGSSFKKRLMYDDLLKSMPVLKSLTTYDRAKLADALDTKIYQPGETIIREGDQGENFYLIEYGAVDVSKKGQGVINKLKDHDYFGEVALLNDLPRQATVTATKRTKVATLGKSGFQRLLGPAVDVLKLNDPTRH

B1: Gip2 (protein, Saccharomyces cerevisiae, UniProt P40036 1-548, looked up)
chain: MYIKAEQKPQQFERKNEKLDRNKNQQLPDLETDFKGYRVNSDLYNKERDGSTEETLNSLKFLHKPQRVTQMRANRFPEEEVQRNTDLNKRIFSAGNDENVDNESGWSKIAAAKNHTSVESLNGSTRPPFKIELPPLSPKSTVPKSFQAEYPEAKSPGNDMNFEYDEEILIPFAPPVYKKSGELLKSSLKRRSKSLPTTPGIRSGNGVQARDGSPMLIRSKSVHFDQAAPVKYFAEDESPINVNKTEQHDNCLSFKHKPVNLMVDPEEETKMLSSGLETTSIDDDLTTVAPKGFAHPAKISNPNNGKGTNNTKLRKSKRFQNLLKNRTDMPPSKSNKKFVNGGGAHEISDRNSKNYHVVGLYSKNFPILSNKNPKSLKLNIFINLSQNKKVFLQELSLYIHRDNNYFSNSSSFYNIPNSHNGNDCNGVAKGYNAGCTRLIAGRILVKNIFYDKRVVVRYTWDSWRTTHEVECVYISDGDGILPGTNMDIFHFIIDDVSKVDPRGKLEFCIHYSTRNDYEREEYWDNNNGNNYKVDVVMDGFNDPFAAAA
B2: Cdc14 (protein, Saccharomyces cerevisiae, UniProt Q00684 1-551, looked up)
chain: MRRSVYLDNTIEFLRGRVYLGAYDYTPEDTDELVFFTVEDAIFYNSFHLDFGPMNIGHLYRFAVIFHEILNDPENANKAVVFYSSASTRQRANAACMLCCYMILVQAWTPHQVLQPLAQVDPPFMPFRDAGYSNADFEITIQDVVYGVWRAKEKGLIDLHSFNLESYEKYEHVEFGDFNVLTPDFIAFASPQEDHPKGYLATKSSHLNQPFKSVLNFFANNNVQLVVRLNSHLYNKKHFEDIGIQHLDLIFEDGTCPDLSIVKNFVGAAETIIKRGGKIAVHCKAGLGRTGCLIGAHLIYTYGFTANECIGFLRFIRPGMVVGPQQHWLYLHQNDFREWKYTTRISLKPSEAIGGLYPLISLEEYRLQKKKLKDDKRVAQNNIEGELRDLTMTPPSNGHGALSARNSSQPSTANNGSNSFKSSAVPQTSPGQPRKGQNGSNTIEDINNNRNPTSHANRKVVIESNNSDDESMQDTNGTSNHYPKVSRKKNDISSASSSRMEDNEPSATNINNAADDTILRQLLPKNRRVTSGRRTTSAAGGIRKISGSIKK
B3: Sds22 (protein, Saccharomyces cerevisiae, UniProt P36047 1-338, looked up)
chain: MDKNSVNKDSEEKDERHKIEVVDDTNPDFITADSELTQDLPDDVEVIDLVHLKIKSLEDLNLYRFKNLKQLCLRQNLIESISEVEVLPHDKIVDLDFYDNKIKHISSNVNKLTKLTSLDLSFNKIKHIKNLENLTDLENLYFVQNSISKIENLSTLKSLKNLELGGNKVHSIEPDSFEGLSNLEEIWLGKNSIPRLINLHPLKNLKILSIQSNKLKKIENLEELTNLEELYLSHNFITKIEGLEKNLKLTTLDVTSNKITSLENLNHLSNLTDIWASFNKIDQSFESLGENLSALSRLETIYLEGNPIQLENKTSYRRKLTMNLPPSLQKIDATYIRG
B4: Glc8 (protein, Saccharomyces cerevisiae, UniProt P41818 1-229, looked up)
chain: MGGILKNPLALSPEQLAQQDPETLEEFRRQVYENTQKNAKLTSHKRNIPGLDNTKEEGEIIGTSSTFLPKDTLSLKHEQDMLAKMTPEERVQWNQRNLAENEITKKQFQDIHIDEPKTPYQGAVDPHGEYYRVDDDEDEDNSDKKPCQVANDDIDDLSLGEPEFEIKENKQPDFETNDENDEDSPEARHKKFEEMRKKHYDVRAIFNKKSREALKDEDEDEDDSTTKEP
B5: Cln2 (protein, Saccharomyces cerevisiae, UniProt P20438 1-545, looked up)
chain: MASAEPRPRMGLVINAKPDYYPIELSNAELLSHFEMLQEYHQEISTNVIAQSCKFKPNPKLIDQQPEMNPVETRSNIITFLFELSVVTRVTNGIFFHSVRLYDRYCSKRIVLRDQAKLVVATCLWLAAKTWGGCNHIINNVVIPTGGRFYGPNPRARIPRLSELVHYCGDGQVFDESMFLQMERHILDTLNWNIYEPMINDYVLNVDENCLMQYELYENQVTYDKQCSEKRQSQLSQDSDATVDERPYQNEEEEEEDLKLKIKLINLKKFLIDVSAWQYDLLRYELFEVSHGIFSIINQFTNQDHGPFLMTPMTSESKNGEILSTLMNGIVSIPNSLMEVYKTVNGVLPFINQVKEYHLDLQRKLQIASNLNISRKLTISTPSCSFENSNSTSIPSPASSSQSHTPMRNMSSLSDNSVFSRNMEQSSPITPSMYQFGQQQSNSICGSTVSVNSLVNTNNKQRIYEQITGPNSNNATNDYIDLLNLNESNKENQNPATAHYLNGGPPKTSFINHGMFPSPTGTINSGKSSSASSLISFGMGNTQVI
B6: Clb2 (protein, Saccharomyces cerevisiae, UniProt P24869 1-491, looked up)
chain: MSNPIENTENSQNTSSSRFLRNVQRLALNNVTNTTFQKSNANNPALTNFKSTLNSVKKEGSRIPQFTRESVSRSTAAQEEKRTLKENGIQLPKNNLLDDKENQDPSSQQFGALTSIKEGRAELPANISLQESSSAKEIIQHDPLKGVGSSTEVVHNSVENEKLHPARSQLQVRNTESETDSGKKRPISTIVEQELPKKFKVCDENGKEEYEWEDLDAEDVNDPFMVSEYVNDIFEYLHQLEVITLPKKEDLYQHRNIHQNRDILVNWLVKIHNKFGLLPETLYLAINIMDRFLGKELVQLDKLQLVGTSCLFIASKYEEVYSPSIKHFASETDGACTEDEIKEGEKFILKTLKFNLNYPNPMNFLRRISKADDYDIQSRTLAKFLLEISLVDFRFIGILPSLCAAAAMFMSRKMLGKGKWDGNLIHYSGGYTKEELAPVCHMIMDYLVSPIVHDEFHRKYQSRRFMKASIISVQWALKVRKNGYDIMTLHE
B7: Tpk3 (protein, Saccharomyces cerevisiae, UniProt P05986 1-398, looked up)
chain: MYVDPMNNNEIRKLSITAKTETTPDNVGQDIPVNAHSVHEECSSNTPVEINGRNSGKLKEEASAGICLVKKPMLQYRDTSGKYSLSDFQILRTLGTGSFGRVHLIRSNHNGRFYALKTLKKHTIVKLKQVEHTNDERRMLSIVSHPFIIRMWGTFQDSQQVFMVMDYIEGGELFSLLRKSQRFPNPVAKFYAAEVCLALEYLHSKDIIYRDLKPENILLDKNGHIKITDFGFAKYVPDVTYTLCGTPDYIAPEVVSTKPYNKSVDWWSFGVLIYEMLAGYTPFYNSNTMKTYENILNAELKFPPFFHPDAQDLLKKLITRDLSERLGNLQNGSEDVKNHPWFNEVIWEKLLARYIETPYEPPIQQGQGDTSQFDRYPEEEFNYGIQGEDPYMDLMKEF
B8: Tpk2 (protein, Saccharomyces cerevisiae, UniProt P06245 1-380, looked up)
chain: MEFVAERAQPVGQTIQQQNVNTYGQGVLQPHHDLQQRQQQQQQRQHQQLLTSQLPQKSLVSKGKYTLHDFQIMRTLGTGSFGRVHLVRSVHNGRYYAIKVLKKQQVVKMKQVEHTNDERRMLKLVEHPFLIRMWGTFQDARNIFMVMDYIEGGELFSLLRKSQRFPNPVAKFYAAEVILALEYLHAHNIIYRDLKPENILLDRNGHIKITDFGFAKEVQTVTWTLCGTPDYIAPEVITTKPYNKSVDWWSLGVLIYEMLAGYTPFYDTTPMKTYEKILQGKVVYPPYFHPDVVDLLSKLITADLTRRIGNLQSGSRDIKAHPWFSEVVWERLLAKDIETPYEPPITSGIGDTSLFDQYPEEQLDYGIQGDDPYAEYFQDF
B9: Tpk1 (protein, Saccharomyces cerevisiae, UniProt P06244 1-397, looked up)
chain: MSTEEQNGGGQKSLDDRQGEESQKGETSERETTATESGNESKSVEKEGGETQEKPKQPHVTYYNEEQYKQFIAQARVTSGKYSLQDFQILRTLGTGSFGRVHLIRSRHNGRYYAMKVLKKEIVVRLKQVEHTNDERLMLSIVTHPFIIRMWGTFQDAQQIFMIMDYIEGGELFSLLRKSQRFPNPVAKFYAAEVCLALEYLHSKDIIYRDLKPENILLDKNGHIKITDFGFAKYVPDVTYTLCGTPDYIAPEVVSTKPYNKSIDWWSFGILIYEMLAGYTPFYDSNTMKTYEKILNAELRFPPFFNEDVKDLLSRLITRDLSQRLGNLQNGTEDVKNHPWFKEVVWEKLLSRNIETPYEPPIQQGQGDTSQFDKYPEEDINYGVQGEDPYADLFRDF

target: Glc7 (Saccharomyces cerevisiae) (UniProt P32598); test: anti-FLAG co-IP, LC-MS/MS

binding, binds:
B1
B2
B3
B4

target: Cdc28 (Saccharomyces cerevisiae) (UniProt P00546); test: anti-FLAG co-IP, LC-MS/MS

binding, binds:
B5
B6

target: T1, Bcy1 (Saccharomyces cerevisiae); test: anti-FLAG co-IP, LC-MS/MS

binding, binds:
B7
B8
B9
